Results are given in words; binding and its absence hold for the method and conditions named. For some assays here: A result given as binding can be weak or reduced; the word gives no strength. For some assays here: Sequences can lack the tags named with a protein.
Legend:
[1] = target: human INCENP (121-178) PVI_3A mutant fragment (human) (UniProt Q9NQS7); experiment: ITC; INCENP fragments 121–178 (wild type or PVI_3A) and full-length HP1α dimer (Fig. S2E); instrument and buffer not told for this panel; both purified
[2] = target: T1, human INCENP (160-192), untagged version (Tyr-added), GST removed (human) (UniProt Q9NQS7); experiment: ITC; VP-ITC, 10 μM INCENP peptide or fragment in the cell, 100 μM HP1α full-length or CSD dimer in the syringe, 20°C, 20 mM NaPO4 pH 7.0, 150 mM NaCl, 1 mM DTT (Fig. 2D, Fig. 3D and E); one-site model; both purified
T1 sequence: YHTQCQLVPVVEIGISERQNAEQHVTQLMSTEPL

The chains behind the UniProt entries cited, without tags or fusion partners.
UniProt P45973: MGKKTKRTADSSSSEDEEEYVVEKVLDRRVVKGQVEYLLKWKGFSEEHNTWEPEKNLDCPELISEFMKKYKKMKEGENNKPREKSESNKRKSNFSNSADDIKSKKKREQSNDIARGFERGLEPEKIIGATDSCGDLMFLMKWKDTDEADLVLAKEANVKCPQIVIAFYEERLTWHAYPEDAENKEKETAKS

[3] = target: T2, human INCENP (160-210) -6His, GST removed (human) (UniProt Q9NQS7); experiment: as above
T2 sequence: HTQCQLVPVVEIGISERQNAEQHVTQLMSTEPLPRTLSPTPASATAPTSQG

[4] = target: T1, human INCENP (160-192), untagged version (Tyr-added), GST removed (human); experiment: NMR titration; 15N- or 13C/15N-labelled INCENP fragment (160–210 or 160–192) with unlabelled full-length HP1α or HP1α CSD added stepwise; 1H-15N HSQC, 298 K, 20 mM NaPO4 pH 7.0, 150 mM NaCl, 1 mM DTT, 5% D2O; both purified
[5] = target: T2, human INCENP (160-210) -6His, GST removed (human); experiment: as above

binding [1] | binding [2] | binding [3] | binding [4] | binding [5] | Substance
no binding | – | – | – | – | full-length human HP1α WT (hHP1α), recombinant (from UniProt P45973 1-191)
– | binds | binds | binds | binds | human HP1α chromoshadow domain (CSD), recombinant (domain or fragment)
